Measured values as given in article PMC11127954.
No constants are given. Whether binding was seen depends on the method and setting. In cells and extracts the contact can be indirect. Some binding calls cover weakened binding; strength is not graded here.

What was measured:
[1] = molecular target: Na+/K+-ATPase alpha 3 subunit (ATP1a3), human (human (endogenous in newborn brain tissue)) (UniProt P13637); assay: proximity ligation; Duolink PLA of BECN1 and ATP1a3 on deparaffinized autoptic brain sections (CA3 hippocampus) of human newborns, control and HIE cases
[2] = molecular target: Na+/K+-ATPase alpha 3 subunit (ATP1a3), rat (rat (endogenous in primary cortical neurons and pup hippocampus)) (UniProt P06687); assay: co-IP; lysates of rat primary cortical neurons (500 ug protein), IP with anti-ATP1a3 overnight at 4 °C, Protein G Dynabeads, immunoblot of BECN1; cells treated with Tat-BECN1 or Tat-sc for 3 h, or KaHx or CTw for 3 h; digoxin treatment also tested
[3] = molecular target: Na+/K+-ATPase alpha 3 subunit (ATP1a3), rat (rat (endogenous in primary cortical neurons and pup hippocampus)) (UniProt P06687); assay: co-IP; hippocampal extracts of P7 rat pups (sham, 6 h and 24 h after hypoxia-ischemia), IP with anti-ATP1a3, immunoblot of BECN1; neriifolin injection also tested
[4] = molecular target: Na+/K+-ATPase alpha 3 subunit (ATP1a3), rat (rat (endogenous in primary cortical neurons and pup hippocampus)) (UniProt P06687); assay: proximity ligation; Duolink PLA of BECN1 and ATP1a3 on fixed rat primary cortical neurons; Tat-BECN1 or Tat-sc for 3 h, KaHx or CTw for 3 h
[5] = molecular target: Na+/K+-ATPase alpha 3 subunit (ATP1a3), rat (rat (endogenous in primary cortical neurons and pup hippocampus)) (UniProt P06687); assay: proximity ligation; Duolink PLA of BECN1 and ATP1a3 on brain sections (CA3 hippocampus) of rat pups, sham and 6 h and 24 h after hypoxia-ischemia; neriifolin injection also tested

binding [1]	binding [2]	binding [3]	binding [4]	binding [5]	Substance
binds					BECLIN1 (BECN1), human (from UniProt Q14457 1-450)
	binds	binds	binds	binds	BECLIN1 (BECN1), rat (from UniProt Q91XJ1 1-448)
